Data as given in PubChem BioAssay AID504795 (Drosophila RNAi Screening Center, 2011).
This is not the whole library: the list holds selected reagents. 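Every listed dsRNA shows some phenotype; how reagents were selected for listing is not stated.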 Names joined by + are all predicted targets of the reagent.

- Aim: 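Fly genes whose loss alters neurite growth or neural cell form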 (primary screen)
- Cells: primary Drosophila neurons and glia
- Reagents: long dsRNA against Drosophila genes, 250 ng dsRNA per well
- Duration: one week
- Detection: 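GFP-labelled neurons and glia imaged live by automated microscope one week after 250 ng dsRNA per well; morphology scored by eye as descriptive phenotype terms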

Gr58b (Gustatory receptor 58b) [DRSC04140]: phenotype seen, replicate 1 = axon bundles split apart
CG12971 [DRSC11681]: phenotype seen, replicate 1 = too many neurite branches
Spn53F (Serpin 53F) [DRSC06022]: phenotype seen, replicate 1 = abnormal cell clusters
CG12003 [DRSC08214]: phenotype seen, replicate 1 = sheet-like cell extensions
Mst57Db (Male-specific RNA 57Db) [DRSC21551]: phenotype seen, replicate 1 = sheet-like cell extensions
Prosbeta7 (Proteasome beta7 subunit) [DRSC12186]: phenotype seen, replicate 1 = axon bundles split apart
Exo84 (Exocyst 84) [DRSC15965]: phenotype seen, replicate 1 = axon bundles split apart
CG10311 [DRSC14228]: phenotype seen, replicate 1 = abnormal cell clusters
CG4854 [DRSC15663]: phenotype seen, replicate 1 = too many neurite branches
CG11052 [DRSC14288]: phenotype seen, replicate 1 = reduced axon outgrowth
cv-d (crossveinless d) [DRSC16526]: phenotype seen, replicate 1 = too many neurite branches
RpL28 + snoRNA:Or-CD12 [DRSC08293]: phenotype seen, replicate 1 = reduced axon outgrowth
Gld2 (GLD2 poly(A) polymerase) [DRSC15863]: phenotype seen, replicate 1 = too many neurite branches
CG7945 + yellow-k [DRSC10851]: phenotype seen, replicate 1 = axon bundles split apart
CG15561 [DRSC15100]: phenotype seen, replicate 1 = reduced axon outgrowth
spri (sprint) [DRSC17846]: phenotype seen, replicate 1 = abnormal cell clusters
CG4842 [DRSC10453]: phenotype seen, replicate 1 = too many neurite branches
CG8765 [DRSC11041]: phenotype seen, replicate 1 = too many neurite branches; phenotype seen, replicate 2 = abnormal cell clusters
trpl (transient receptor potential-like) [DRSC06728]: phenotype seen, replicate 1 = axon bundles split apart
trpl (transient receptor potential-like) [DRSC06729]: phenotype seen, replicate 1 = reduced axon outgrowth
CG13029 [DRSC09909]: phenotype seen, replicate 1 = too many neurite branches
CG30192 [DRSC03977]: phenotype seen, replicate 1 = too many neurite branches
MED14 (Mediator complex subunit 14) [DRSC08235]: phenotype seen, replicate 1 = sheet-like cell extensions
CG30447 [DRSC05820]: phenotype seen, replicate 1 = abnormal cell clusters
FoxK (Forkhead box K) [DRSC09859]: phenotype seen, replicate 1 = abnormal cell clusters
CG1888 [DRSC06797]: phenotype seen, replicate 1 = axon bundles split apart
dsb (debris buster) [DRSC08407]: phenotype seen, replicate 1 = abnormal cell clusters
CG7992 [DRSC20070]: phenotype seen, replicate 1 = abnormal cell clusters
Kebab (Kinetochore and EB1 associated basic protein) [DRSC00827]: phenotype seen, replicate 1 = beaded; swollen axons
GC2 [DRSC14476]: phenotype seen, replicate 1 = axon bundles split apart
CG14258 [DRSC14753]: phenotype seen, replicate 1 = abnormal cell clusters
shep (alan shepard) [DRSC09771]: phenotype seen, replicate 1 = axon bundles split apart

Single entries from the list:
Kebab (Kinetochore and EB1 associated basic protein) [DRSC00827], phenotype seen, replicate 1 → beaded; swollen axons
Prosbeta7 (Proteasome beta7 subunit) [DRSC12186], phenotype seen, replicate 1: axon bundles split apart
RpL28 + snoRNA:Or-CD12 [DRSC08293], phenotype seen, replicate 1 → reduced axon outgrowth
Under “phenotype seen, replicate 1”, Exo84 (Exocyst 84) [DRSC15965] is entered as axon bundles split apart
